Values quoted from earlier work, collected in patent US8784849B2, “Hydroxyapatite-targeting poly(ethylene glycol) and related polymers” (Nektar Therapeutics, priority 2000, dated 2014).

Details: cited from earlier work

For `CC(=O)O[C@H]1C(=O)[C@@]2(C)[C@H]([C@H](OC(=O)c3ccccc3)[C@]3(O)C[C@H](OC(=O)[C@H](O)[C@@H](NC(=O)c4ccccc4)c4ccccc4)C(C)=C1C3(C)C)[C@]1(OC(C)=O)CO[C@@H]1C[C@@H]2O` [paclitaxel], the “solubility in water (in words)” value is given as “water-insoluble”.
